The test system of the data set is C. sporogenes ATCC 25762 linoleate isomerase. As to the kind of experiment: Stability of C. sporogenes linoleate isomerase. It is filed as biochemical, Clostridium sporogenes. Conditions: for effect on enzyme activity and stability: crude extracts.

SMILES strings stand for the structures. Read-outs that look alike come from different tables or passages of the source. Some compounds share one wording; it may come from a single statement. Where a SMILES comes first, the peptide text is derived from it. [ ]: non-standard residue; d: D form. The star is where a group is joined. Sta = CC(C)C[C@H](N)[C@@H](O)CC(=O)O; Isovaleryl = CC(C)CC(=O)*

Take `c1cnc2c(c1)ccc1cccnc12` [1,10-phenanthroline]: the “effect on enzyme activity and stability” value is “protected”. `O=C(O)CN(CCN(CC(=O)O)CC(=O)O)CC(=O)O` [EDTA]: the “effect on enzyme activity and stability” value (1 mM) is listed as “negative effect”. Take `O=S(=O)(F)Cc1ccccc1` [PMSF]: the “effect on the stability of isomerase” value (0.1-1.0 mM) is “None provided measurable benefit”. Regarding `NC(=O)CI` [iodoacetamide], where the note is “1 mM”, the “effect on the stability of isomerase” value is “None provided measurable benefit”.

`CC(C)CC(=O)N[C@H](C(=O)N[C@H](C(=O)N[C@@H](CC(C)C)[C@@H](O)CC(=O)N[C@@H](C)C(=O)N[C@@H](CC(C)C)[C@@H](O)CC(=O)O)C(C)C)C(C)C` [pepstatin A] (Isovaleryl-VV[Sta]A[Sta]-OH): the “effect on the stability of isomerase” value is on record as “None provided measurable benefit”.

Source of the values: patent US6743609B1, “Linoleate isomerase” (Arkion Life Sciences LLC, priority 1997, dated 2004).
